PubChem BioAssay AID1259314, Drosophila RNAi Screening Center | 2017
The whole screen tested about 3,100 reagents; shown is a random part of them. 289 of them (9.3%) count as active. 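Active includes both higher and lower ATP than plate average; check the z-score sign for direction.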 Unmarked entries are inactive. Reagent sequences are not shown. Not stated in the record: the amount of reagent.

Screen: 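Genes whose knock-down alters cell survival under toxic manganese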 (primary screen)
Cells: Drosophila S2R+ cells
Reagent: long dsRNA against Drosophila genes
Duration: 5 days (4 days knock-down, then 1 day metal exposure)
Treatment: manganese chloride added to 15 mM for 24 hours
Measured: 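Luciferase ATP signal used as a proxy for viable cell number, reported as one averaged z-score per dsRNA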
Scale: mean ATP z-score: higher = more ATP than the plate average, more viable cells under manganese
Call rule: 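a mean ATP z-score past 1.5 in either direction is called active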
Calls: active = strong ATP change, up or down; inactive = no strong ATP change

no.	gene knocked down	DRSC id	mean ATP z-score
1	PK2-R1 (GeneID 41639)	DRSC16447	-0.302
2	PK2-R1 (GeneID 41639)	DRSC24363	-1.1
3	HisT (GeneID 35697)	DRSC05051	0.111
4	HisT (GeneID 35697)	DRSC06405	1.73 (active)
5	SppL (GeneID 43128)	DRSC15228	-0.0159
6	Alg3 (GeneID 37754)	DRSC04700	0.989
7	CG1688 (GeneID 36005)	DRSC23207	0.0853
8	Osi23 (GeneID 43615)	DRSC15074	-0.043
9	Gr57a (GeneID 37347)	DRSC06401	-0.462
10	Sr-CII (GeneID 44219)	DRSC07557	-1.16
11	Sr-CII (GeneID 44219)	DRSC25606	1.87 (active)
12	CG13793 (GeneID 34047)	DRSC02297	1.93 (active)
13	CG13793 (GeneID 34047)	DRSC28252	0.264
14	galene (GeneID 38133)	DRSC08640	-0.327
15	galene (GeneID 38133)	DRSC08641	-0.214
16	CG1824 (GeneID 32208)	DRSC19796	-0.474
17	CG1824 (GeneID 32208)	DRSC39705	0.921
18	Nup93-2 (GeneID 41804)	DRSC16221	0.327
19	opm (GeneID 32435)	DRSC22135	-0.938
20	opm (GeneID 32435)	DRSC29575	-0.247
21	OstDelta (GeneID 37029)	DRSC06980	0.0658
22	OstDelta (GeneID 37029)	DRSC27205	-1.46
23	CR7448 (GeneID 26067587)	DRSC11828	2.4 (active)
24	CR7448 (GeneID 26067587)	DRSC22485	-0.433
25	5-HT2A (GeneID 40575)	DRSC11990	-0.155
26	5-HT2A (GeneID 40575)	DRSC39711	0.0882
27	Osi2 (GeneID 40756)	DRSC12174	-0.548
28	Osi2 (GeneID 40756)	DRSC28374	3.21 (active)
29	Nmdar2 (GeneID 31107)	DRSC18183	1.05
30	Nmdar2 (GeneID 31107)	DRSC18569	0.35
31	Picot (GeneID 36865)	DRSC07508	1.07
32	Picot (GeneID 36865)	DRSC24256	0.163
33	Gr98b (GeneID 117327)	DRSC21675	-0.151
34	Gr98b (GeneID 117327)	DRSC39891	-0.664
35	Cox10 (GeneID 34394)	DRSC02804	-0.146
36	Cox10 (GeneID 34394)	DRSC39538	-1.35
37	Ent3 (GeneID 39461)	DRSC09822	-0.604
38	Ent3 (GeneID 39461)	DRSC29706	-0.481
39	CG7990 (GeneID 32909)	DRSC19296	0.545
40	CG7990 (GeneID 32909)	DRSC23195	-0.624
41	CG7990 (GeneID 32909)	DRSC26580	0.00142
42	CG10171 (GeneID 39501)	DRSC09711	-0.314
43	CG10171 (GeneID 39501)	DRSC26279	-0.901
44	CG9254 (GeneID 34773)	DRSC01969	0.637
45	CG4168 (GeneID 34889)	DRSC01447	1.14
46	CG4168 (GeneID 34889)	DRSC01933	0.287
47	CG4168 (GeneID 34889)	DRSC22789	0.393
48	ATP8A (GeneID 36488)	DRSC06643	-1.23
49	ATP8A (GeneID 36488)	DRSC06644	-1.59 (active)
50	CG18281 (GeneID 40274)	DRSC11742	0.979
51	CG18281 (GeneID 40274)	DRSC39875	-0.418
52	Or42b (GeneID 35516)	DRSC04913	-0.707
53	Or42b (GeneID 35516)	DRSC27273	-0.478
54	PIG-G (GeneID 35685)	DRSC06823	-0.68
55	Ir94b (GeneID 318728)	DRSC21439	0.0666
56	CG6928 (GeneID 39367)	DRSC10749	0.25
57	CG6928 (GeneID 39367)	DRSC39754	-0.993
58	Sr-CIV (GeneID 33576)	DRSC00575	0.478
59	Sr-CIV (GeneID 33576)	DRSC24930	-0.283
60	CG31454 (GeneID 318744)	DRSC22801	0.661
61	CG31454 (GeneID 318744)	DRSC24377	-0.61
62	Osi20 (GeneID 40777)	DRSC12568	-0.311
63	Osi20 (GeneID 40777)	DRSC28630	-0.154
64	CG33282 (GeneID 2768939)	DRSC00422	0.149
65	CG33282 (GeneID 2768939)	DRSC39731	2.79 (active)
66	Afg3l2 (GeneID 39922)	DRSC10657	-1.63 (active)
67	Afg3l2 (GeneID 39922)	DRSC29981	-1.48
68	bdg (GeneID 36747)	DRSC07136	-0.0693
69	bw (GeneID 37724)	DRSC04005	0.224
70	bw (GeneID 37724)	DRSC04677	1.16
71	rtet (GeneID 42500)	DRSC14160	-1.31
72	rtet (GeneID 42500)	DRSC39843	-0.982
73	ppk6 (GeneID 37286)	DRSC06062	0.959
74	ppk6 (GeneID 37286)	DRSC39881	3.11 (active)
75	Sb (GeneID 41958)	DRSC16851	0.328
76	Sb (GeneID 41958)	DRSC29250	0.0603

7 successive reagents already listed, for reference:
no.	gene knocked down	DRSC id	mean ATP z-score
46	CG4168 (GeneID 34889)	DRSC01933	0.287
47	CG4168 (GeneID 34889)	DRSC22789	0.393
48	ATP8A (GeneID 36488)	DRSC06643	-1.23
49	ATP8A (GeneID 36488)	DRSC06644	-1.59 (active)
50	CG18281 (GeneID 40274)	DRSC11742	0.979
51	CG18281 (GeneID 40274)	DRSC39875	-0.418
52	Or42b (GeneID 35516)	DRSC04913	-0.707
